Screening data, single-dose tests

Protein sequences, listed by entry. Tags and fused reporters are not part of them.
UniProt I6X8D2, whole entry: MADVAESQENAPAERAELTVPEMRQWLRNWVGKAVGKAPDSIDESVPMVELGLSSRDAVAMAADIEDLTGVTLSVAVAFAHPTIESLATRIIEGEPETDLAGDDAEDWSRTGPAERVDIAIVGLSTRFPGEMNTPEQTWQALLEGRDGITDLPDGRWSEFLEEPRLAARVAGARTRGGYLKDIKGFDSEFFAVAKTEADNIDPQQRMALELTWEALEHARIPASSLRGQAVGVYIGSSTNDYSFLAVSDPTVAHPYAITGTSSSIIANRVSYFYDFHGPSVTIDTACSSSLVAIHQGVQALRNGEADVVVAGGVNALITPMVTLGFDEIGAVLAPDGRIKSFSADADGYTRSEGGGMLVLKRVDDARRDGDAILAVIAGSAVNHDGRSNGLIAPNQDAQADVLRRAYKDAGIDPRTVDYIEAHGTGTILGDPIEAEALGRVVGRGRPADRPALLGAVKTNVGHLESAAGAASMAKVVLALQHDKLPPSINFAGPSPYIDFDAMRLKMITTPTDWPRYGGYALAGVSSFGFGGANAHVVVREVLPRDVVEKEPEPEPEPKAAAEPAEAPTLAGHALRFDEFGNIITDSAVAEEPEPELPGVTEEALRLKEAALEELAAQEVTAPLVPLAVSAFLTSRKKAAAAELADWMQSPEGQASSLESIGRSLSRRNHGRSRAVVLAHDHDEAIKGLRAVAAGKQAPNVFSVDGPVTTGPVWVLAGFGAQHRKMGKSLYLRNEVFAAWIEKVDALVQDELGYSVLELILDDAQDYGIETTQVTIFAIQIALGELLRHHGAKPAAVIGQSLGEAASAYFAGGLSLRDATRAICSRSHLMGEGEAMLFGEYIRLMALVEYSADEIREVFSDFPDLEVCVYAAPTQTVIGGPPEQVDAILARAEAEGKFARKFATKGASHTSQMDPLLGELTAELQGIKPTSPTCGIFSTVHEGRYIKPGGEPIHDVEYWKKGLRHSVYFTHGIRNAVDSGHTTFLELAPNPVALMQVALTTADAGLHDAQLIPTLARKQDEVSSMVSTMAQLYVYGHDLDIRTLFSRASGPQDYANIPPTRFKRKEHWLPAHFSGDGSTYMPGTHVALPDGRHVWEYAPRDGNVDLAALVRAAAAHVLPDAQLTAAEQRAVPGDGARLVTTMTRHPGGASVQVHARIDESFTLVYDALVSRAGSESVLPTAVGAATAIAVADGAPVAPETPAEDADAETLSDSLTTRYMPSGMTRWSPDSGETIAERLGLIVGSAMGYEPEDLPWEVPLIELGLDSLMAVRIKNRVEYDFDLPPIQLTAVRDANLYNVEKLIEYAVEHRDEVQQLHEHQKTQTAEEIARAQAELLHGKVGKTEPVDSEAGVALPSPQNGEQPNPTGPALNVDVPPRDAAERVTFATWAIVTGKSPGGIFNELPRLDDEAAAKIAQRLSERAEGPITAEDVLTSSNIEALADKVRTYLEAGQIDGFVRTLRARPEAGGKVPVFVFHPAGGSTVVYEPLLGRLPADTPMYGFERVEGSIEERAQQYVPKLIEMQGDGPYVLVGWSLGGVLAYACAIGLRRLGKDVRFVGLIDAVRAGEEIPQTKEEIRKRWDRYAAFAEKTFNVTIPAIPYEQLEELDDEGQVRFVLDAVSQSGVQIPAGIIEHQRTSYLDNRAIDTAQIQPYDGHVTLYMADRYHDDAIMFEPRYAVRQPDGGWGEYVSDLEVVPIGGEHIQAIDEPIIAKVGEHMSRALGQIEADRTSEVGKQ

From ChEMBL document CHEMBL3988442, “University of Dundee, Small-Polar-MMV Screening Library” (2021).

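Polyketide synthase Pks13, Mycobacterium tuberculosis (UniProt I6X8D2). Enzyme assay of the thioesterase domain of polyketide synthase 13; the read-out is not stated. Compounds at 30 µM. The record gives no direction; the compounds picked for IC50 retests had high values, so higher reads as stronger inhibition. About 67,000 compounds were tested under these conditions; 0.46% (about 300) showed 50% or more at least once.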

Values are the deposited “Percent Effect”, in %. The controls that fix the scale are not given in the record; negative values are as filed. The compounds are a random part of those screened.

compound	Percent Effect
O=C1C[C@H]2[C@@H](CCN2C(=O)c2cscn2)N1Cc1cccnc1	-30.61%
Cc1c[nH]c(C2CN(Cc3ccccc3C(=O)O)CCO2)n1 (centres undefined)	0.9556%
CN1CCCC(CCC(=O)N2CCc3sc(C(=O)N(C)C)cc3C2)C1 (centres undefined)	-5.29%
COCCN(CCC#N)Cn1cc(Cl)cn1	-34.06%
CCc1c(C(=O)N2CCC3(CC(=O)NC3=O)C2)csc1C (centres undefined)	6.602%
Cc1nnc(N2CCCC3(CN(Cc4ccc(F)cc4)CCO3)C2)o1 (centres undefined)	-4.383%
COCC1CN(Cc2c(C)noc2C)Cc2ccnn2C1 (centres undefined)	-4.422%
Cn1nc(COCC2CC2)c2c1CCN(Cc1cccs1)C2	-8.605%
CCn1nc(C)c(CN2CCCC(c3ccc(C(=O)O)cc3)C2)c1C (centres undefined)	10.62%
COc1ccccc1CC(=O)NS(=O)(=O)c1cncc(Br)c1	4.846%
Cc1cc(C)n(CC(=O)N2CCC(c3nc(C)no3)CC2)n1	-1.744%
O=C(c1ccccc1F)N1CCOC(c2nc(-c3ncccn3)no2)C1 (centres undefined)	10.82%
Cn1c(N)c2c(=O)n(C)c(-c3ccc(Cl)cc3)cc2c(C#N)c1=O	-0.5995%
CCCOCC(=O)N1CCc2c(cccc2S(=O)(=O)N2CCOCC2)C1	8.101%
COCCn1ccnc1-c1[nH]cnc1C	-30.5%
Cc1cc(NC2CCc3ncnn3C2)n2ncnc2n1 (centres undefined)	-6.502%
COc1ccc(NC(=O)C(C)(C)C)cc1OCc1cccnc1	-17.78%
CC1CN(C(=O)Nc2ccc(Cl)c(C(=O)NC3CC3)c2)CC(C)(C)O1 (centres undefined)	-2.652%
CN(C)C(=O)N1CCN(Cc2cnc(-c3ccsc3)s2)CC1	-4.614%
CC(=O)N1CC(C(=O)NC(C)c2cnn(C)c2C)C1 (centres undefined)	-4.855%
OC(CNCc1ccccc1C(F)(F)F)c1ccccc1 (centres undefined)	-10.37%
COc1cccc(CNC(=O)C(C)N2CC(n3nc(C)cc3C)C2)c1 (centres undefined)	-4.98%
CC1CCCN(c2ncc(C(=O)NCc3ccc(F)c(Cl)c3)c(N)n2)C1 (centres undefined)	40.6%
COc1cccc(N2CCN(CCC(=O)NC3CCCC3)CC2)c1	-29.03%
COc1cccc(CN2CCOC(c3cnccn3)C2)c1F (centres undefined)	-7.33%
Cc1[nH]ncc1C(=O)N1CCN(CC(O)C(C)(C)C)CC1 (centres undefined)	-12.21%
Cc1nn(C2CCS(=O)(=O)C2)c(O)c1Cc1ccc(Br)cc1 (centres undefined)	-5.388%
OCCN1CCN(CC(O)c2cc(Cl)ccc2Cl)CC1 (centres undefined)	-2.034%
Cc1cc(C)n(CC2CCN(CC(O)CN3CCOCC3)CC2)n1 (centres undefined)	-6.746%
Cn1cc(C(C)(O)CNc2ccccn2)cn1 (centres undefined)	-16.03%
CC(C)NC(=O)C1(CC2CC(c3ccc(F)cc3)=NO2)CCNCC1 (centres undefined)	-25.51%
Cc1cc(N(C)Cc2ncc[nH]2)nc(-c2ccccc2)n1	-14.76%
CNC(=O)c1ccc(C2CCCN(C(=O)c3c(C)noc3C)C2)nc1 (centres undefined)	-4.088%
COc1ccc(F)cc1NC(=O)NCC1(C)COC1	9.801%
Cc1ccc(CNc2ccn(CCc3ccncc3)n2)s1	-51.44%
O=C1CC(C(=O)Nc2nnc(-c3ccoc3)[nH]2)c2ccccc2N1 (centres undefined)	-32.6%
CCc1noc(CS(=O)(=O)C/C=C/c2ccccc2)n1	-21.27%
Cc1cncc(Oc2ccc(CO)cc2)n1	-9.026%
CN(C)C(=O)c1nnc2ccc(N3CCOCC3)cc2n1	11.73%
CCC(O)(CNCc1ncc[nH]1)c1ccc(Br)cc1 (centres undefined)	-38.61%
O=C(NCC1(O)CCSCC1)c1nccc2ccccc12	-17.88%
CN1C(=O)C2(CCN(C(=O)c3ccccc3)CC2)c2cccc(F)c21	-48.82%
O=C1NC2(CCCCC2)c2nnnn2-c2ccc(Br)cc21	-10.9%
CC(C)N1CCO[C@H]2CN(C(=O)c3ccncc3)C[C@H]21	-13.77%
O=C(Nc1nccs1)NC1CCN(Cc2ccccn2)CC1	-19.03%
O=C(CCS(=O)(=O)c1ccccc1)NC1CCOC2(CCOCC2)C1 (centres undefined)	-12.24%
COCCN1CCCC2(CCN(c3nc(C)nc4ccsc34)C2)C1=O (centres undefined)	-36.36%
Cc1n[nH]c(C)c1NC(=O)C1CCCN(C(=O)NCC(C)C)C1 (centres undefined)	-8.538%
CC(=O)c1ccc(CN2C[C@@H](CN3CCC(O)CC3)[C@@H](CO)C2)cc1	-4.06%
CCC(C(=O)NCc1ccccn1)N(c1cccc(C)c1)S(C)(=O)=O (centres undefined)	-27.08%
O=C(Cc1cccnc1)N1CCCC(c2cc(C(F)(F)F)[nH]n2)C1 (centres undefined)	-18.08%
Cc1ccc2[nH]c(=O)c(CNCCCN3CCOCC3)cc2c1	13.31%
CNC(=O)Cn1ccc2ccc(NC(=O)C(C)C)cc21	-9.883%
c1cnc(N2CCCC3(CCN(CC4CCC4)C3)C2)nc1 (centres undefined)	-17.15%
O=c1n(CC2CC2)nc(C2CCNCC2)n1Cc1ccccc1	-7.373%
CN1CCOC2(CCCN(C(=O)C3CCCCC3)C2)C1 (centres undefined)	-27.47%
CCNC(=O)C1CCN(Cn2nc(-c3ccc(F)cc3)oc2=O)CC1	-3.089%
COc1cc(C)nc(N2CCN(C(=O)CSC)CC2)n1	-1.893%
CCc1nnc2n1CCN(C(C(=O)N(CC)CC)c1ccccc1)C2 (centres undefined)	-9.89%
CSCC(CCO)NC(=O)c1cccc(Cl)c1F (centres undefined)	-8.044%
COc1cccc(F)c1C(=O)N1C[C@@H](CN(C)CCO)[C@@H](CO)C1	9.899%
CCc1noc(CNc2ccc(C(=O)N3CCCC3)cc2C)n1	-22.47%
Cc1cc(-n2cncn2)ccc1C(=O)N(CC(F)(F)F)C(C)C	-10.63%
O=C(NCCC(=O)N1CCCC1)c1nn(-c2ccccc2F)cc1O	-3.113%

For reference, 6 entries once more:

| compound | Percent Effect |
|---|---|
| `OC(CNCc1ccccc1C(F)(F)F)c1ccccc1` (centres undefined) | -10.37% |
| `COc1ccccc1CC(=O)NS(=O)(=O)c1cncc(Br)c1` | 4.846% |
| `Cc1cc(N(C)Cc2ncc[nH]2)nc(-c2ccccc2)n1` | -14.76% |
| `COCCn1ccnc1-c1[nH]cnc1C` | -30.5% |
| `CN1CCCC(CCC(=O)N2CCc3sc(C(=O)N(C)C)cc3C2)C1` (centres undefined) | -5.29% |
| `CC(C)NC(=O)C1(CC2CC(c3ccc(F)cc3)=NO2)CCNCC1` (centres undefined) | -25.51% |